Measurements published in patent US20240358865A1, “QUINOLINYL AND PRIDINYL CONTAINING COMPOUNDS TARGETING ON ALPHA-SYNUCLEIN FOR NEUROLOGICAL DISEASES” (Washington University, priority 2023, published 2024).
Some of these results come from one statement about several compounds together.

Experiment: MicroPET imaging of the macaque (NHP) brain
Format: in vivo
From the text: The radiosynthesis of [^18F]TZ83-41 was accomplished by a two-step procedure with [^18F]fluoroethyl ptoluenesulfonate as a prosthetic group, followed by O-alkylation to the quinolinyl-containing phenol group. [^18F]TZ80-156 was synthesized starting from the allylic bromide precursor via nucleophilic halogen exchange (halex) reaction with [^18F]fluoride, followed by deprotection of the N-Boc amine with trifluoroacetic acid. Homologous competitive binding assays with α-synuclein fibrils amplified from PD tissue were used to determine the direct binding affinity of the two radioligands. The biodistribution study was performed in male Sprague Dawley (SD) rats at four time points (5, 30, 60 min and 120 min) after intravenous injection of the radiotracer. The uptake of radioactivity was calculated as percentage injected dose per gram (% ID/gram). Both radiotracers were evaluated with microPET imaging using a Focus 220 microPET scanner to collect dynamic scans after intravenous injection into male macaques (NHP) (FIGS. 1A-1C).

Row | Structure (SMILES) | time of maximum brain SUV post tracer injection
1 | COc1ccc(Nc2ccc3cc(OC/C=C/C[18F])ccc3n2)cn1 [[^18F]TZ80-156] | 6 to 7 min
2 | CCCOc1ccc(Nc2ccc3cc(OCC[18F])ccc3n2)cn1 [[^18F]TZ83-41] | 6 to 7 min
